According to publication PMC4482694, “Machine Learning Models and Pathway Genome Data Base for Trypanosoma cruzi Drug Discovery” (PLoS Neglected Tropical Diseases, 2015):

Tested on: T. cruzi CA-I/72
Experiment: Secondary screening (dose-response assay)
Assay type: cell-based
Conditions: Trypanosoma cruzi, C2C12, 72 h
Method: T. cruzi CA-I/72 trypomastigotes were obtained from C2C12 infected-culture supernatants after 4–7 days of infection. Cultures were maintained at 37°C with 5% CO2. […] Compounds were added at 10 mM in 50 nl per well using a Biomek FX (Beckman Coulter) for a final 10 μM concentration in 50 μl total volume, and 2,500 parasites were added in 10 μl per well. The plate was incubated for 72 hours at 37°C with 5% CO2. After the incubation, the plate was fixed with the addition of 50 μl of 8% paraformaldehyde solution, followed by two successive washing steps using PBS. Finally, a staining solution containing 0.5 μg/ml of 4',6-diamidino-2-phenylindole (DAPI) was added to each well of the plate and incubated for at least 4 hours prior to reading. Images were acquired by an IN Cell Analyzer 2000 (GE Healthcare) and analyzed by IN Cell Analyzer Developer 1.6 software. […] Numbers of host cells and intracellular amastigotes were determined based on host cell and parasite nucleus quantification, providing a measure of growth inhibition during the first 72 h of post-infection treatment compared to untreated controls. […] The host cell viability was assessed based on the total number of cells divided by the average number of cells from untreated controls (0.1% DMSO), being <0.5 considered a cytotoxic compound. This assay was performed in duplicate. […]

**Q.** With CCCCCCCCCCCCCCCC[n+]1ccccc1 [SC-0011466, cetylpyridinium chloride] as the compound, how does the EC50 read?
**A.** > 10 µM

**Q.** What about the EC90 of the same compound?
**A.** > 10 µM
